Experimental data as given in US12642870B2, “Compositions and methods for delivery of nucleic acids” (Poseida Therapeutics, Inc., priority 2020, dated 2026).
For at least one compound, name, drawing or mass did not settle the structure.

Legend:
[1] = Physical characterisation of mRNA-containing LNPs (DLS, NTA, zeta potential); assay type: physicochemical; conditions: Fluc mRNA LNPs: compound/DOPE/Cholesterol/DMG-PEG2000 41.44/45.85/10/2.7, lipid:RNA 40:1 (w/w)
Procedure: A series of ten multi-component LNP compositions of the present disclosure comprising exemplary compounds of Formula (I) was prepared by combining various percentages of an exemplary compound of Formula (I), the phospholipid DOPE, the structural lipid cholesterol (Chol) and 1,2-dimyristoyl-sn-glycerol methoxypolyethylene glycol (DMG-PEG2000; Avanti Polar Lipids, Alabaster, Alabama, USA).
Individual 25 mg/ml stock solutions were prepared by solubilizing the lipids in 200-proof HPLC-grade ethanol and stock solutions were stored at −80° C. until formulated. At the time of formulation, the lipid stock solutions were briefly allowed to equilibrate to room temp and then placed on a hot plate maintained at a temperature range of 50-55° C.
A 1 mg/mi solution of the desired mRNA to be incorporated into the LNPs was added to 150 mM sodium acetate buffer (pH 5.2) to form a stock solution and kept on ice. The lipid phase was mixed with the aqueous m RNA phase inside a microfluidic chip using a NanoAssemblr® instrument (Precision Nanosystems, Vancouver, BC, Canada) according to the manufacturer's instructions to form LNP compositions comprising encapsulated mRNAs.
The resultant mRNA LNP compositions were then transferred to a Repligen Float-A-Lyzer dialysis device—having a molecular weight cut off (MWCO) of 8-10 kDa (Spectrum Chemical Mfg. Corp, CA, USA) and processed by dialysis against phosphate buffered saline (PBS) (dialysate:dialysis buffer volume at least 1:200 v/v), pH 7.4 overnight at 4° C. (or alternatively room temperature for at least 4 hours), to remove the 25% ethanol and achieve a complete buffer exchange. In some experiments the LNPs were further concentrated by in an Amicon® Ultra-4 centrifugal filter unit, MWCO-30 kDa (Millipore Sigma, USA) spun at ˜4100×g in an ultracentrifuge. The mRNA LNPs were then stored at 4° C. until further use.
A series of multicomponent LNP compositions comprising one of COMPOUNDS 1-8 described in Example 1 and the mRNA encoding flue was prepared according to Example 2 and the physical characteristics of the resulting LNPs were analyzed.
In a separate experiment, LNP compositions of the present disclosure comprising mRNA encoding firefly luciferase (hereafter “Fluc”; TriLink) and COMPOUNDS 1-8 were prepared as described in Example 2 by combining one of COMPOUNDS 1-8, the phospholipid DOPE, the structural lipid cholesterol (Chol) and 1,2-dimyristoyl-sn-glycerol methoxypolyethylene glycol (DMG-PEG2000) in the percentages presented in Table 8: […]

[2] = Physical characterisation of DNA-containing LNPs (DLS, NTA, zeta potential); assay type: physicochemical; conditions: nano-pB-EF1a-GFP DNA LNPs: compound/DOPE/Cholesterol/DMG-PEG2000 38.0/50.0/10.0/2.0, lipid:DNA 45:1 (w/w)
Procedure: LNP compositions of the present disclosure comprising DNA, a nanoplasmid encoding a piggyBac transposon, wherein the piggyBac transposon comprised GFP under control of the EF1a promoter (herein referred to as the nano-pB-EF1a-GFP), and one of COMPOUNDS 1-8 were prepared as described in Example 3 by combining one of COMPOUNDS 1-8, the phospholipid DOPE, the structural lipid cholesterol (Chol) and 1,2-dimyristoyl-sn-glycerol methoxypolyethylene glycol (DMG-PEG2000) in the following percentages in Table 20: […]

SMILES | Diameter (DLS; nm) [1] [nm] | Diameter (NTA; nm) [1] [nm] | PDI [1] | Total Particles/ml [1] [Particles/ml] | Zeta Potential (mV) [1] [mV] | Diameter (DLS; nm) [2] [nm] | Diameter (NTA; nm) [2] [nm] | PDI [2] | Total Particles/ml [2] [Particles/ml] | Zeta Potential (mV) [2] [mV]
CC(C)C(CCC(C)C(CCC1CCC(C(=O)NCCCCCCCCCCCCNC(=O)C2CCC(CCC(SCCN(C)C)C(C)CCC(SCCN(C)C)C(C)C)C(SCCN(C)C)C2)CC1SCCN(C)C)SCCN(C)C)SCCN(C)C (stereo not drawn) [Compound 3] | 94.0 | 87.9 | 0.482 | 3.68E+11 | 0.12 | 92.8 | 98.5 | 0.25 | 1.85E+11 | 0.5
CC(C)C(CCC1CCC(C(=O)NCCCCCCCCCCCCNC(=O)C2CCC(CCC(SCCN(C)C)C(C)C)C(SCCN(C)C)C2)CC1SCCN(C)C)SCCN(C)C (stereo not drawn) [Compound 4] | 286.2 | 88.9 | 0.708 | 3.40E+11 | −0.27 | 254.9 | 132.5 | 1.0 | 8.01E+10 | −0.17
CC(C)C(CCC1CC2C(=O)N(c3ccc(N4C(=O)C5CC(CCC(SCCN(C)C)C(C)C)C(SCCN(C)C)CC5C4=O)cc3)C(=O)C2CC1SCCN(C)C)SCCN(C)C (stereo not drawn) [Compound 8] | 91.8 | 106.1 | 0.392 | 1.15E+11 | 0.25 | 92.9 | 122.1 | 0.237 | 2.43E+11 | 0.34
